log2 fold change data for 22 targets are collected here from the supplement of paper PMC10849652.

Sequences of proteins named here, by UniProt entry; tags and fusion partners are left off. A change or cut given only in a name is not applied to a line headed by its entry.
UniProt O43251: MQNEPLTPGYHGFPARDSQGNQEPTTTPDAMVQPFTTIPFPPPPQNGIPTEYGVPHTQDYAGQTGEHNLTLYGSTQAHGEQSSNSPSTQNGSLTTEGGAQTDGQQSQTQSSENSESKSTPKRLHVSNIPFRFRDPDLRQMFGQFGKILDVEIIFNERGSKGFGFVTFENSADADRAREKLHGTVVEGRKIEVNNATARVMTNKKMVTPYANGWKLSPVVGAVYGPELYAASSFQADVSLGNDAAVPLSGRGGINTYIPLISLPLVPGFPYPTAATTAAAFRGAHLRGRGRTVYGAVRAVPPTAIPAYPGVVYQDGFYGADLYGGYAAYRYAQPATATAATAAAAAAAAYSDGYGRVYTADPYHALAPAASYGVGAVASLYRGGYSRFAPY
UniProt Q9BYM8: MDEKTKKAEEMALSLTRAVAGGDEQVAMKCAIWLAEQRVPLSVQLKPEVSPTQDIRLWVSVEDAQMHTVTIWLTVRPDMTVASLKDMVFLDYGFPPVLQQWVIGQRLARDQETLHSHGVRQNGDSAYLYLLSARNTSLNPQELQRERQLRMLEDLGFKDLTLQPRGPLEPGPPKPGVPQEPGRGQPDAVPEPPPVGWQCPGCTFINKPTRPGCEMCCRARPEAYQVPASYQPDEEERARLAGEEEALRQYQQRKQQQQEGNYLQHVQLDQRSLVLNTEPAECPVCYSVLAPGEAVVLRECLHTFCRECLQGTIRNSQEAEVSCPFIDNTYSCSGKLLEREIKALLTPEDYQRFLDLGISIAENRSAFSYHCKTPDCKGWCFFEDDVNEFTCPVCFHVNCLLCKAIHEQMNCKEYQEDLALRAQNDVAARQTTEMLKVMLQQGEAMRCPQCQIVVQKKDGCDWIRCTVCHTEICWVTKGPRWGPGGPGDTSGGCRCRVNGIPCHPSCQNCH
UniProt Q86U06: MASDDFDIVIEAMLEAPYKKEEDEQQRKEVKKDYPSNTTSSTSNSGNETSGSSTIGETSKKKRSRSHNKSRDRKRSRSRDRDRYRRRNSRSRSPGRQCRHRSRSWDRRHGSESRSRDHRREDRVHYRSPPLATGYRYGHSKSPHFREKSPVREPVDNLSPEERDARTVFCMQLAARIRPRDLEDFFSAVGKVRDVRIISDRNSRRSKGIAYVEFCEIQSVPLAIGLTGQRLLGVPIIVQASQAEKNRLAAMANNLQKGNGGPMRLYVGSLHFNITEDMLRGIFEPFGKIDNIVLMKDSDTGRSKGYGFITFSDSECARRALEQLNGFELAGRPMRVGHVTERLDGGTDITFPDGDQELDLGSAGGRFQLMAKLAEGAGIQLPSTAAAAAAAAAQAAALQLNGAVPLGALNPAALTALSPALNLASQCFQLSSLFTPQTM
UniProt Q9UKM9: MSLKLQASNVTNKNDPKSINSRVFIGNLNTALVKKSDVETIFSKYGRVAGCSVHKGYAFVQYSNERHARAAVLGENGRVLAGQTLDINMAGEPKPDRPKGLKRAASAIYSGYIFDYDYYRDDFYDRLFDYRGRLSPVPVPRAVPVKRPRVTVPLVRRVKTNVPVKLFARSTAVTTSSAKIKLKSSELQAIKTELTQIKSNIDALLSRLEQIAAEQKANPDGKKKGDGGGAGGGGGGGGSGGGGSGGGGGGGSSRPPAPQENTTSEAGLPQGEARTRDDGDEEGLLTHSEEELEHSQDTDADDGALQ
UniProt O75884: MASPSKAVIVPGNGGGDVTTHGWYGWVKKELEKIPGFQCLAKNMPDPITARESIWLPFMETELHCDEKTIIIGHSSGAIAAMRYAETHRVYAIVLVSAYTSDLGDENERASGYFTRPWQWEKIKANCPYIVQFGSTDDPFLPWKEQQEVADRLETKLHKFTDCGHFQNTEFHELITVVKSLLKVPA
UniProt Q9NS23: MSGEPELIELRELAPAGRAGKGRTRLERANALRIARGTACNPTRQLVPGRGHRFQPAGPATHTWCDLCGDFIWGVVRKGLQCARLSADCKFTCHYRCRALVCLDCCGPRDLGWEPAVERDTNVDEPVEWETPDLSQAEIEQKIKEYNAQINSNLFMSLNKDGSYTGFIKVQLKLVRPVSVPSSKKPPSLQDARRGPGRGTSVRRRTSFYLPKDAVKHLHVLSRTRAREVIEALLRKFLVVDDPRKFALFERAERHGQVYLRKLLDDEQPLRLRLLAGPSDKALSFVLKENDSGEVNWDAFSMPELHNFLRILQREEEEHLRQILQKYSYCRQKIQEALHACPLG
UniProt P20936: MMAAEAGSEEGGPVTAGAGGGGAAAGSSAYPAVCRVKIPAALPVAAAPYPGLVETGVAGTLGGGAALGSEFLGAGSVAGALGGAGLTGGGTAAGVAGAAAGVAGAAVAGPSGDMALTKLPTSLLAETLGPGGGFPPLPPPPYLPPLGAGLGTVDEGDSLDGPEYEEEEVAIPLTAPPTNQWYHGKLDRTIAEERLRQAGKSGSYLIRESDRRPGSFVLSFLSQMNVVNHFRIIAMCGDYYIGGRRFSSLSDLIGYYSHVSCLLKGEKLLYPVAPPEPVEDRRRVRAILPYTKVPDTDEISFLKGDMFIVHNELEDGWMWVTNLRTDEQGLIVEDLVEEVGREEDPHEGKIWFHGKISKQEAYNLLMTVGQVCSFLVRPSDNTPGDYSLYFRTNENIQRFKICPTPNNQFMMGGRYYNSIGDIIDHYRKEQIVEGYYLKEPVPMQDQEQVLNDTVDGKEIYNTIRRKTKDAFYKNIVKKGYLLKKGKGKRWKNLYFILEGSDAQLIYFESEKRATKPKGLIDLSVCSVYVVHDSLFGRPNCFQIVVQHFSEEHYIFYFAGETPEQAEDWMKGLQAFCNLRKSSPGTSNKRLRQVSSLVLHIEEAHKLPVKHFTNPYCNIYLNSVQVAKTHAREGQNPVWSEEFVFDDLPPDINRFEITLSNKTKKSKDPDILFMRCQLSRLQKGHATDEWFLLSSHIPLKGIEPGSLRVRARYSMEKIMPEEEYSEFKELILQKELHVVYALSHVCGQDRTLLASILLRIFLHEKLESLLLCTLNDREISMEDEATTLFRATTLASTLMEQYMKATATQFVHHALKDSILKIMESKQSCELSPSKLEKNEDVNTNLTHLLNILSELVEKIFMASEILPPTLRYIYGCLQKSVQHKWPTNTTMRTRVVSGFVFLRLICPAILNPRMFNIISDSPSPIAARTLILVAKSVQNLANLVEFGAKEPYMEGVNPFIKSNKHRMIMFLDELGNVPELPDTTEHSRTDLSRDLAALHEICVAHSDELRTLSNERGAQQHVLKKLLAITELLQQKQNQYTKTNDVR
UniProt Q15283: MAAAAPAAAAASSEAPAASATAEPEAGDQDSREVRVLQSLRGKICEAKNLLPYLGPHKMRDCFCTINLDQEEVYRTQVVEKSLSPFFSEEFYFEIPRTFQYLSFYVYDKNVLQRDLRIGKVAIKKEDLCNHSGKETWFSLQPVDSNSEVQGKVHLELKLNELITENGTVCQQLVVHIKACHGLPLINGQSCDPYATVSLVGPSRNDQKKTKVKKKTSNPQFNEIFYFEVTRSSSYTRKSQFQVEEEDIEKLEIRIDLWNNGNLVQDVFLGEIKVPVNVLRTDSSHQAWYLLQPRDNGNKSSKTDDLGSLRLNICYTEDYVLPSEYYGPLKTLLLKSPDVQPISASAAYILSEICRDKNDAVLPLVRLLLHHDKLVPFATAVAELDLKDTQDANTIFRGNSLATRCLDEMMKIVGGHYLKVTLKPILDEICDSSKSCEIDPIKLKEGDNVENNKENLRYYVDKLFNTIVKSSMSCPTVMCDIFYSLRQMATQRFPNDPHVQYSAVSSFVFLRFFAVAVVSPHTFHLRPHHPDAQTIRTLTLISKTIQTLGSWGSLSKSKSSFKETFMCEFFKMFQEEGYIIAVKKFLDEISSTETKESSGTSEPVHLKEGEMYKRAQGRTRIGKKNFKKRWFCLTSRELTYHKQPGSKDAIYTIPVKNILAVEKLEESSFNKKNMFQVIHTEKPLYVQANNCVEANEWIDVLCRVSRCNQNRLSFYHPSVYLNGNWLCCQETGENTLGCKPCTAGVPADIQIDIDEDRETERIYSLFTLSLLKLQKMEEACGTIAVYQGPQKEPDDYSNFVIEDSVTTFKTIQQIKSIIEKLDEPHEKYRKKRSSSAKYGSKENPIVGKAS
UniProt Q15291, whole entry, looked up: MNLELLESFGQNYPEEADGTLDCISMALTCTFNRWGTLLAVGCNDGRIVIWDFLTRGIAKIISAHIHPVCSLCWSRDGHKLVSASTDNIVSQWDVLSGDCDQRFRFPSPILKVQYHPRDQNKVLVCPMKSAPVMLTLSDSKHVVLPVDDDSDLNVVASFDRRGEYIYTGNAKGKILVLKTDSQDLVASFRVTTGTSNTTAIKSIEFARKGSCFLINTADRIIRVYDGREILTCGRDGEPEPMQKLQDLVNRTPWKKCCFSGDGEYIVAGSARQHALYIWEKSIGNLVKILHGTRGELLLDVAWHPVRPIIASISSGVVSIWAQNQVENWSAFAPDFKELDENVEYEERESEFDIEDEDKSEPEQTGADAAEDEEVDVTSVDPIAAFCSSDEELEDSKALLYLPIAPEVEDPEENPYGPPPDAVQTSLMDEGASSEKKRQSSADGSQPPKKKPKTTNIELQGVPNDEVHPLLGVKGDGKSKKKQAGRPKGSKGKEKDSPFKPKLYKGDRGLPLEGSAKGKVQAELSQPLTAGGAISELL
UniProt Q96E17: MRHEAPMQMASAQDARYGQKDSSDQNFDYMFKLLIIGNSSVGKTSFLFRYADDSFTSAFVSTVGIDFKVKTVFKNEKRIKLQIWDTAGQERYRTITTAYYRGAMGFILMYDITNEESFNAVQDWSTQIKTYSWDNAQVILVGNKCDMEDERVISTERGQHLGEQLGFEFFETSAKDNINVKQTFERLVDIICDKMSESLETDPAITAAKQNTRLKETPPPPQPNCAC
UniProt Q15771: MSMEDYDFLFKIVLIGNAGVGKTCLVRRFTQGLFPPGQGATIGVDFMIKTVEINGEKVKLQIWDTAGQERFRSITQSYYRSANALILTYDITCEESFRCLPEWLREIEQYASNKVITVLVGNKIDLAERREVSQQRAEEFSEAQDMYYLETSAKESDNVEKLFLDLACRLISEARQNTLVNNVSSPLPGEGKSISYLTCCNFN
UniProt Q15311: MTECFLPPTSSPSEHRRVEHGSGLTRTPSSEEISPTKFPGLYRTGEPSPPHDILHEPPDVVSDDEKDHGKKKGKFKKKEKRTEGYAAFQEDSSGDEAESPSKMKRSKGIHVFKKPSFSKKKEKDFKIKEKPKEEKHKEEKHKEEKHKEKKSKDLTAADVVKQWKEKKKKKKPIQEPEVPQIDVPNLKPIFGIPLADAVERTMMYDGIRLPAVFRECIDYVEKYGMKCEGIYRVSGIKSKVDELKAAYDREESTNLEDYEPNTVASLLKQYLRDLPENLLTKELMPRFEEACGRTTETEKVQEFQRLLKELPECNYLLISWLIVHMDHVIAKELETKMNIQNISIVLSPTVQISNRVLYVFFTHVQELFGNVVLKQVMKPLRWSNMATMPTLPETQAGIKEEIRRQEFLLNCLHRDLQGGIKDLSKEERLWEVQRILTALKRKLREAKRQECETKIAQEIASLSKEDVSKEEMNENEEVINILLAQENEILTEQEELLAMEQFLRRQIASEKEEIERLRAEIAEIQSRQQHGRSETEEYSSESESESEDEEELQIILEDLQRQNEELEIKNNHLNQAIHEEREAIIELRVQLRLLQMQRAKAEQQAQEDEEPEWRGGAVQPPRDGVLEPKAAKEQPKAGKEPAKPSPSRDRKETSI
UniProt Q96S21: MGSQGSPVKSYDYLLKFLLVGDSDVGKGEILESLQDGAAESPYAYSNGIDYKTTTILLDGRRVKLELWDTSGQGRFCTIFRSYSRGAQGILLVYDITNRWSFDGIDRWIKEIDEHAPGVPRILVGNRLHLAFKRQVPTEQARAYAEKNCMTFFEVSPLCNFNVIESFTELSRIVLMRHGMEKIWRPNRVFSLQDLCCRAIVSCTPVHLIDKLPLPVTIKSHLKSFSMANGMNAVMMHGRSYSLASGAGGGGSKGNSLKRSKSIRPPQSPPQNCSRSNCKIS
UniProt Q9H082: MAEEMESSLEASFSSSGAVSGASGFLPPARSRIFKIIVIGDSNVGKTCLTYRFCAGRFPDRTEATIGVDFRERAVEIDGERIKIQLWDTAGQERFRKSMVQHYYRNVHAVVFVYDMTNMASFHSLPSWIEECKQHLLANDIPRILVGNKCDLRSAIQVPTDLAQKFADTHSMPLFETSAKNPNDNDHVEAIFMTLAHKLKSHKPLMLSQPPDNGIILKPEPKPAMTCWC
UniProt Q96D70: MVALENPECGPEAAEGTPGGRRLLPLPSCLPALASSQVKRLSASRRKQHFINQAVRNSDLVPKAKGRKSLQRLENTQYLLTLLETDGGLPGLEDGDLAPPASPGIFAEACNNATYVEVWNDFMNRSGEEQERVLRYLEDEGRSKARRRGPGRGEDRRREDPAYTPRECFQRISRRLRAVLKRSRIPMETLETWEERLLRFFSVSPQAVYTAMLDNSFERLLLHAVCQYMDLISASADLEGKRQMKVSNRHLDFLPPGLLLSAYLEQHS

The list shows a part of the results.

Compound in the experiment: CC1=C2C(=CC=C1)N=C(N(C2=O)C3=CC=CC=C3C)CN4C=NC5=C(N=CN=C54)N
Briefly: log2 fold change, soluble protein after heating vs DMSO (PISA); higher = thermal stabilisation; K562 cells, 10 uM, 30 min; active = over 0.2 and 3.5 SD of the protein, either way, in both replicates (recomputed). The method in brief:
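K562 cells at 2×10^6 cells/mL were treated with 10 μM compound for 30 min. Aliquots were heated for 3 min across 48°C-58°C, pooled, and extracted in PBS with 0.5% NP-40 at 4°C; soluble protein was the supernatant after 21,000xg for 90 min. Soluble protein was quantified by TMTpro 16plex LC-MS/MS with channel sums equalised, and reported as log2 fold change in thermal stability against DMSO controls, with values from duplicates.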
RBFOX2 isoform 8 (UniProt O43251): the log2 fold change is inactive: -0.043.
The figure for RASSF3 (UniProt Q86WH2) is inactive: 0.033; for RBCK1 (UniProt Q9BYM8) it is inactive: 0.195; for RBM23 (UniProt Q86U06) it is inactive: 0.211.
The figure for RALY (UniProt Q9UKM9) is inactive: -0.243; for RBKS (UniProt Q9H477) it is inactive: -0.06.
Turning to RBBP9 (UniProt O75884), the log2 fold change is inactive: -0.066.
The value for RASSF1 (UniProt Q9NS23) was inactive: 0.367; that for RASA1 (UniProt P20936) was inactive: 0.187.
For RAB28 (UniProt P51157), the log2 fold change was inactive: 0.044.
The figure for RASA2 (UniProt Q15283) is inactive: 0.311.
The value for RBBP5 isoform 2 (UniProt Q15291) was inactive: -0.098; that for RAB3C (UniProt Q96E17) was inactive: -0.026.
As for RAB3IL1 (UniProt E9PK89), the log2 fold change was inactive: -0.107.
The figure for RAB30 (UniProt Q15771) is inactive: -0.051; for R3HDM1 isoform 2 (UniProt Q15032) it is inactive: -0.026; for RAP1B (UniProt F5GWU8) it is inactive: 0.022.
The value for RALBP1 (UniProt Q15311) was inactive: 0.076; that for RAB40C (UniProt Q96S21) was inactive: 0.064; that for RAB33B (UniProt Q9H082) was inactive: 0.116.
The value for R3HDM4 (UniProt Q96D70) was inactive: -0.194.
In the case of RABAC1 (UniProt Q9UI14), the log2 fold change is inactive: 0.139.
